Experimental data published in publication PMC9618567.
These are yes or no findings as the source states them, for the method shown. Some entries that bind do so weakly or less than the wild type.

Protein sequences, listed by entry. Tags and fused reporters are not part of them. Residues count along the entry.
UniProt P08195, residues 102-630: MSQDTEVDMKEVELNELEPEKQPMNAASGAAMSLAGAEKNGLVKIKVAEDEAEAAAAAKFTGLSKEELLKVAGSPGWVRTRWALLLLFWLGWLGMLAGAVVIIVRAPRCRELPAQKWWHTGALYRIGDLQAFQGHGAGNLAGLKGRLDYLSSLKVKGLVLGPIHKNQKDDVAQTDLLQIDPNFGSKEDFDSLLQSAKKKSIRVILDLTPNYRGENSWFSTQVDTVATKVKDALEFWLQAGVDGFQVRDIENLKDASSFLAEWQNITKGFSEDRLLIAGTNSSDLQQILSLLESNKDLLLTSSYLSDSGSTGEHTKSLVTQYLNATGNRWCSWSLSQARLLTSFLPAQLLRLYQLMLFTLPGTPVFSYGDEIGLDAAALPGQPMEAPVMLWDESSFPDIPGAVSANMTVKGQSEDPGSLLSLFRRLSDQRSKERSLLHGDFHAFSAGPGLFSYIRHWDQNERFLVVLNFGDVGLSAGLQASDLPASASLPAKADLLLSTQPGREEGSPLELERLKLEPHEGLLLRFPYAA

Biological target: human 4F2hc (SLC3A2; CD98hc) (human) (UniProt P08195)
Assay: cryo-EM structure; SEC peak fraction of the 4F2hc-LAT2::D11vs complex in GDN, ~3 mg/ml; single-particle cryo-EM, 3.2 Å; both purified

B1: human LAT2 (SLC7A8) (protein, UniProt Q9UHI5-1 1-535)
chain: MEEGARHRNNTEKKHPGGGESDASPEAGSGGGGVALKKEIGLVSACGIIVGNIIGSGIFVSPKGVLENAGSVGLALIVWIVTGFITVVGALCYAELGVTIPKSGGDYSYVKDIFGGLAGFLRLWIAVLVIYPTNQAVIALTFSNYVLQPLFPTCFPPESGLRLLAAICLLLLTWVNCSSVRWATRVQDIFTAGKLLALALIIIMGIVQICKGEYFWLEPKNAFENFQEPDIGLVALAFLQGSFAYGGWNFLNYVTEELVDPYKNLPRAIFISIPLVTFVYVFANVAYVTAMSPQELLASNAVAVTFGEKLLGVMAWIMPISVALSTFGGVNGSLFTSSRLFFAGAREGHLPSVLAMIHVKRCTPIPALLFTCISTLLMLVTSDMYTLINYVGFINYLFYGVTVAGQIVLRWKKPDIPRPIKINLLFPIIYLLFWAFLLVFSLWSEPVVCGIGLAIMLTGVPVYFLGVYWQHKPKCFSDFIELLTLVSQKMCVVVYPEVERGSGTEEANEDMEEQQQPMYQPTPTKDKDVAGQPQP
**Q.** With B1 as the binder, how does the binding read?
**A.** binds
